This note sets out measurements from patent US20210123036A1.

By UniProt entry, the sequences of proteins in these tests, tags left out. Where a name states a change or a piece, a line headed by the entry shows the natural chain unless it says otherwise.
UniProt P02453: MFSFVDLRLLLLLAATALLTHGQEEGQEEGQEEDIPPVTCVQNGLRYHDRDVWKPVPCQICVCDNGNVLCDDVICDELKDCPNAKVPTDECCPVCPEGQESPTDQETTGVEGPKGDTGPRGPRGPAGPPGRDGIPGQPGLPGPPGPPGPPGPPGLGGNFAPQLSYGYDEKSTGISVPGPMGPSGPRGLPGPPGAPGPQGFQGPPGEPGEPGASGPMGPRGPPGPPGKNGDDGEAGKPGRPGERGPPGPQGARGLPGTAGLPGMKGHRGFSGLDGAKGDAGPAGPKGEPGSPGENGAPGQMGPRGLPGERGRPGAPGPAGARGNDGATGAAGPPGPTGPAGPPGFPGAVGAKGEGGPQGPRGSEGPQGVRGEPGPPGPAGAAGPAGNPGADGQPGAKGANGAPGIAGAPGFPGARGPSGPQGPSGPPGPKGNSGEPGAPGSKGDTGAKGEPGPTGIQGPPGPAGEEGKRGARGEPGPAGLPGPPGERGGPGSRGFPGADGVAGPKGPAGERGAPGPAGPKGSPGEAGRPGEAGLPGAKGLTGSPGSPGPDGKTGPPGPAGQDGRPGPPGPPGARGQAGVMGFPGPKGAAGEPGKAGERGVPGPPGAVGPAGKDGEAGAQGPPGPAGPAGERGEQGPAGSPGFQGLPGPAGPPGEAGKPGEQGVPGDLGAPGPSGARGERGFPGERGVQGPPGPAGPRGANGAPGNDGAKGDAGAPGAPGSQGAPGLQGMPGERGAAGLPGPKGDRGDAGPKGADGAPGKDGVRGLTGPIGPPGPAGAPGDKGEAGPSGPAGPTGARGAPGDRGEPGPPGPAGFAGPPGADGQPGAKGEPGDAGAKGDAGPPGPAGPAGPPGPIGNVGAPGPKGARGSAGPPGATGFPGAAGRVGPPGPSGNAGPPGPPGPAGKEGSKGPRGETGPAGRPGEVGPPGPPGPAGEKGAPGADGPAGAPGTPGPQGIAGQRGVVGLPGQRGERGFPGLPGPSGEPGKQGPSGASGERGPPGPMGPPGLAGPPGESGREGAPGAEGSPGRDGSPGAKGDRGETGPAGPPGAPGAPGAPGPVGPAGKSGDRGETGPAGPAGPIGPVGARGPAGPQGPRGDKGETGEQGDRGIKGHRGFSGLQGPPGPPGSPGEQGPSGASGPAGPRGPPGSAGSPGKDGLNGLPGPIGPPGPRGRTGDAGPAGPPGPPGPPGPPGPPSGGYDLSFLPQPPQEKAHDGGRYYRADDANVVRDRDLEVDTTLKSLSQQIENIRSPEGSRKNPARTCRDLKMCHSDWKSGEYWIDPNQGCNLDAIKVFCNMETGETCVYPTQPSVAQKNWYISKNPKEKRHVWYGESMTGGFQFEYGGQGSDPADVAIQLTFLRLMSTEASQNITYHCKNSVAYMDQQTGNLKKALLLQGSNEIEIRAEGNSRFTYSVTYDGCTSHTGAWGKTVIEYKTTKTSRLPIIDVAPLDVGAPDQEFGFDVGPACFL
UniProt P02465: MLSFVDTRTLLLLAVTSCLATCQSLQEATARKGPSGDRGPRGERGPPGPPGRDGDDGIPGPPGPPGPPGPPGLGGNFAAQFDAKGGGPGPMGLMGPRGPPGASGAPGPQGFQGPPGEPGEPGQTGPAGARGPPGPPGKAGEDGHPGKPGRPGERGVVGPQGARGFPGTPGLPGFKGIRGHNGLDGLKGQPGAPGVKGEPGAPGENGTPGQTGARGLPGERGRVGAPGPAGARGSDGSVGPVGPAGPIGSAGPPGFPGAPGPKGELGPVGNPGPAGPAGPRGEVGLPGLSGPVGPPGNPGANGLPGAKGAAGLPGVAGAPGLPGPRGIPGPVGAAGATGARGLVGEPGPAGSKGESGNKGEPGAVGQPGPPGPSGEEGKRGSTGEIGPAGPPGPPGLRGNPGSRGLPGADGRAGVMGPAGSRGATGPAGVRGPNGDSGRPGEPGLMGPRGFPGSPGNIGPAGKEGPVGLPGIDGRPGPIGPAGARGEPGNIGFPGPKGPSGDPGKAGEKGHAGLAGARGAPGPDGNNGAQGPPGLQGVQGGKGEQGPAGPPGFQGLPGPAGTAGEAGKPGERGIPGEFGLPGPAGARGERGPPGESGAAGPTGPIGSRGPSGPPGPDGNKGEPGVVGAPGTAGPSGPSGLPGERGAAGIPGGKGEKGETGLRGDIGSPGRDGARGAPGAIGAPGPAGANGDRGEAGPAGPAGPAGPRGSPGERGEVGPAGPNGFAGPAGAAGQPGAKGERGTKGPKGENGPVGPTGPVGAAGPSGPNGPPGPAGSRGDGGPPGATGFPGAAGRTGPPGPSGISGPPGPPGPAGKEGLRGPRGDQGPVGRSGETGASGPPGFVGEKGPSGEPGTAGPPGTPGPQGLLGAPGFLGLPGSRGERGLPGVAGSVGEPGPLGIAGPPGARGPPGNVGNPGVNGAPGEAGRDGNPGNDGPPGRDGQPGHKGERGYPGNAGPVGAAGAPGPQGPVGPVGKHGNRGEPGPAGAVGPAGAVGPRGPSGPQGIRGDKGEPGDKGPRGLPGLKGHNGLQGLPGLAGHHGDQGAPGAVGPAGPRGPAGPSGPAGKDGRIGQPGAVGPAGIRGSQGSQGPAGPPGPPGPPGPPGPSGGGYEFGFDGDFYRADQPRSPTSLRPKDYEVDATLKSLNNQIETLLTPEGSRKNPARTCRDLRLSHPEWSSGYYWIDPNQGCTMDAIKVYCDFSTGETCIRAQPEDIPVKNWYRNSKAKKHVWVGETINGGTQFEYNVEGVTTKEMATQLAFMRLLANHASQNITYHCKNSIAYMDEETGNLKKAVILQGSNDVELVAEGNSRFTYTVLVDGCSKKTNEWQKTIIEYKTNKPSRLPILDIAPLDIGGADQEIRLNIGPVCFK
UniProt P08253: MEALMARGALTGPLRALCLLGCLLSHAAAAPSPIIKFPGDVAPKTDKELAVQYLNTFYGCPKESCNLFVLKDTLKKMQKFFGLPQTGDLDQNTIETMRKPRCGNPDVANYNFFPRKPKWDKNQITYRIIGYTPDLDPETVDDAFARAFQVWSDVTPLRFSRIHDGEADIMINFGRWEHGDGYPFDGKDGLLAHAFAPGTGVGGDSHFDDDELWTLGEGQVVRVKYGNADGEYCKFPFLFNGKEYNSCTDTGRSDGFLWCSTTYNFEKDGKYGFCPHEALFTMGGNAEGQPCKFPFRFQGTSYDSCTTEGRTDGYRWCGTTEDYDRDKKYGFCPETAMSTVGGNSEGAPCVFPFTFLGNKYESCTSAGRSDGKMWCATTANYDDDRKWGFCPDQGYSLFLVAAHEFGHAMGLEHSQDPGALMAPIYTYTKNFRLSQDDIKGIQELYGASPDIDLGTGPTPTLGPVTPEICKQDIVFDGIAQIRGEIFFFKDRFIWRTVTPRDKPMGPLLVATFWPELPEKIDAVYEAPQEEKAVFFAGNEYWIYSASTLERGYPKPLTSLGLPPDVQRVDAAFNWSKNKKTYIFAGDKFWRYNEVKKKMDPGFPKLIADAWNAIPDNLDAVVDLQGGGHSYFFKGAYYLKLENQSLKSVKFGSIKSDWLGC

These are yes or no findings as the source states them, for the method shown. Binding seen in cells or lysates may run through a third protein. Some results given as binding are weak or reduced against the parent protein; the word gives no strength.

The test addresses Gelatin sepharose (bovine skin Type I collagen gelatin) (bovine) (UniProt P02453+P02465). Briefly: gelatin sepharose pull-down, SDS-PAGE.
In the case of “module 2 of the CBD of MMP-2 (from UniProt P08253 286-334)”, the binding result is recorded as “binds”.

As to “module 3 of the CBD of MMP-2 (from UniProt P08253 344-392)”, the binding entry is “binds”.

With “collagen binding domain (CBD) of gelatinase A (MMP-2) (from UniProt P08253 228-392)”, the binding result is “binds”.
